Results on 30 compounds are retold here after the supplement of paper PMC12889115.

SMILES strings stand for the structures. This is one part of the list. These are raw signals, not scaled to a control.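 First-pass screen: polymyxin B was added at a level that permeabilizes the Salmonella outer membrane while sparing the inner membrane. DMSO wells, with and without polymyxin B, defined maximum growth. Because plates differed from one another, each plate's data were ranked separately and the compounds with the lowest OD600 were carried forward as hits.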

This test has as its system Salmonella enterica serovar Typhimurium SL1344. Description: bacterial growth OD600 after 18 h with compound and polymyxin B; higher = more bacterial growth (less inhibition). Conditions: 50 µM, Mueller-Hinton broth.

`COC(=O)CC[C@H](NC(=O)c1ccc(-n2cc(NC(=O)c3ccc(C)cc3C)cn2)cc1)C(=O)OC`: the “bacterial growth OD600” value (polymyxin B 0.75 µg/mL) came to 0.775.

As for `O=C(Cn1nnnc1CN1CCCCCC1)NCC1CCCO1` (stereo not given), the “bacterial growth OD600” value (polymyxin B 0.75 µg/mL) was determined as 0.963. `CC(C)(C)CN1CCCC2(CCN(C(=O)CCC3CCCC3)C2)C1=O` (stereo not given): the “bacterial growth OD600” value (polymyxin B 1 µg/mL) came to 0.862. For the compound `COc1ccc2c(c1)-c1nc(-n3ncc(C(=O)N4CCN(CCO)CC4)c3C3CC3)ncc1CC2`, the “bacterial growth OD600” value (polymyxin B 0.75 µg/mL) stood at 0.836.

Regarding `Cc1ccc(CN(C)C(=O)c2cc(NC(=O)CC3CCCC3)cc3nc(C4CCCO4)n(C)c23)cc1` (stereo not given), for the setting “polymyxin B 0.75 µg/mL”, the “bacterial growth OD600” value was found to be 0.898.

As for `O=C1CCC(CCC(=O)N2CCCC(CCc3ccc(F)c(F)c3)C2)=NN1` (stereo not given), the “bacterial growth OD600” value (polymyxin B 0.75 µg/mL) was 0.58. Same read-out and setting: to `CN(C(=O)Cn1cccn1)C(Cc1ccccc1)C1CCN(C(=O)c2cnn(-c3ccccc3)c2)CC1` (stereo not given) belongs 0.767. Consider `CCN1CC(CNc2ccc(-c3nc(CC(C)C)no3)cn2)CC1=O` (stereo not given), for which the “bacterial growth OD600” value (polymyxin B 1 µg/mL) was determined as 0.934.

For `Cc1c(CC(=O)NC(C)(C)CO)c2c(n1Cc1ccccc1F)CCCC2=O`, the “bacterial growth OD600” value (polymyxin B 1 µg/mL) was found to be 1.11. Same read-out and setting: for `CCN(CC)c1ccc(C(=O)N2CCC(CN3CCCC3=O)CC2)cn1` the value was 0.961; for `CCCCNC(=O)NC1CC(=O)N(C2CCCCCC2)C1` (stereo not given), 0.98. As to `COc1ccc(C(=O)N2CCCC(c3nc(-c4ccncc4)ncc3-c3ccccc3C)C2)c(OC)c1` (stereo not given), the “bacterial growth OD600” value (polymyxin B 0.75 µg/mL) was 0.008.

For the compound `O=C(c1cc2ccccc2o1)N1CCCC(Nc2ccc(F)c(F)c2)C1` (stereo not given), the “bacterial growth OD600” value (polymyxin B 1 µg/mL) was 0.013. With `COCC(O)CNC(=O)C1CCN(c2nc(-c3ccccc3)nc3c2CCC3)CC1` (stereo not given), the “bacterial growth OD600” value (polymyxin B 0.75 µg/mL) came out at 0.87. Turning to `Cc1cccc(CCNC(=O)c2coc(COc3cccc(F)c3F)n2)n1`, the “bacterial growth OD600” value (polymyxin B 1 µg/mL) was found to be 0.968.

Consider `COc1cc(CN2CCOc3ccc(C(O)c4ccncc4)cc3C2)ccc1OCc1ccccc1` (stereo not given), for which the “bacterial growth OD600” value (polymyxin B 0.75 µg/mL) is -0.001. For `COc1ccc(C(=O)N2CCCC2)c(OC2CCN(Cc3ccc(Cl)c(F)c3)CC2)c1`, where the note is “polymyxin B 0.75 µg/mL”, the “bacterial growth OD600” value was found to be 0.735. Take `O=C(NC1CCCC1)c1coc(COc2cccc(F)c2F)n1`: for the setting “polymyxin B 1 µg/mL”, the “bacterial growth OD600” value was 0.837. As to `Cc1ccccc1CCC1CCCN(C(=O)CCc2cccnc2)C1` (stereo not given), the “bacterial growth OD600” value (polymyxin B 0.75 µg/mL) was 0.498. On the same count and under the same terms, to `Cc1ccccc1-n1ncc(C(C)NC(=O)C[n+]2cc([O-])on2)c1C` (stereo not given) belongs 0.739.

Turning to `CSc1ccc(C(=O)N2CCOc3ccc(CN4CCN(c5ccc(F)cc5)CC4)cc3C2)cc1`, the “bacterial growth OD600” value (polymyxin B 0.75 µg/mL) was 0.735. The same measure, in the same setting: to `O=C(c1ccoc1)N1CCCC(CCc2ccccc2)C1` (stereo not given) belongs 0.004; to `CCCCN(C)C(=O)C1CCCN(c2nc(C)c3ccc(S(C)(=O)=O)cc3n2)C1` (stereo not given), 0.698. For the compound `Cc1cc(C)n2nc(C(=O)N3CCCC(Nc4ccc(F)c(F)c4)C3)cc2n1` (stereo not given), where the note is “polymyxin B 1 µg/mL”, the “bacterial growth OD600” value came out at 0.845. Consider `COc1cccc(OC)c1CN1CCC(c2nc(-c3ccncc3)ncc2-c2cccc(C)c2)CC1`, for which, under “polymyxin B 0.75 µg/mL”, the “bacterial growth OD600” value stood at 0.811.

As to `COC(=O)CCCC(=O)N1CCCC(Nc2ccc(C(C)C)cc2)C1` (stereo not given), the “bacterial growth OD600” value (polymyxin B 1 µg/mL) amounted to 0.936.

As for `Cn1c(C(=O)N2CCC(CCC(=O)NCc3cccnc3)CC2)cc2ccccc21`, under “polymyxin B 1 µg/mL”, the “bacterial growth OD600” value came to 1.06. The same measure, in the same setting: to `CCOC(=O)C1(CCCc2ccccc2)CCCN(C(=O)c2cc(C)c(C)[nH]c2=O)C1` (stereo not given) belongs 1.18. Consider `CCOC(=O)N1CCN(Cc2ccc3c(c2)CN(C(=O)C2Cc4ccccc4O2)CCO3)CC1` (stereo not given), for which, where the note is “polymyxin B 0.75 µg/mL”, the “bacterial growth OD600” value is 0.777.

`O=C(COc1ccccc1)Nc1ccc(N2CCC(NC[C@H]3CCc4ccccc4O3)CC2)cc1`: under “polymyxin B 0.75 µg/mL”, the “bacterial growth OD600” value was 0.92.
